# Laboratory results from the supplement of paper PMC7666118.
# Sequences of proteins named here, by UniProt entry; tags and fusion partners are left off. A change or cut given only in a name is not applied to a line headed by its entry.
# UniProt Q9UI26: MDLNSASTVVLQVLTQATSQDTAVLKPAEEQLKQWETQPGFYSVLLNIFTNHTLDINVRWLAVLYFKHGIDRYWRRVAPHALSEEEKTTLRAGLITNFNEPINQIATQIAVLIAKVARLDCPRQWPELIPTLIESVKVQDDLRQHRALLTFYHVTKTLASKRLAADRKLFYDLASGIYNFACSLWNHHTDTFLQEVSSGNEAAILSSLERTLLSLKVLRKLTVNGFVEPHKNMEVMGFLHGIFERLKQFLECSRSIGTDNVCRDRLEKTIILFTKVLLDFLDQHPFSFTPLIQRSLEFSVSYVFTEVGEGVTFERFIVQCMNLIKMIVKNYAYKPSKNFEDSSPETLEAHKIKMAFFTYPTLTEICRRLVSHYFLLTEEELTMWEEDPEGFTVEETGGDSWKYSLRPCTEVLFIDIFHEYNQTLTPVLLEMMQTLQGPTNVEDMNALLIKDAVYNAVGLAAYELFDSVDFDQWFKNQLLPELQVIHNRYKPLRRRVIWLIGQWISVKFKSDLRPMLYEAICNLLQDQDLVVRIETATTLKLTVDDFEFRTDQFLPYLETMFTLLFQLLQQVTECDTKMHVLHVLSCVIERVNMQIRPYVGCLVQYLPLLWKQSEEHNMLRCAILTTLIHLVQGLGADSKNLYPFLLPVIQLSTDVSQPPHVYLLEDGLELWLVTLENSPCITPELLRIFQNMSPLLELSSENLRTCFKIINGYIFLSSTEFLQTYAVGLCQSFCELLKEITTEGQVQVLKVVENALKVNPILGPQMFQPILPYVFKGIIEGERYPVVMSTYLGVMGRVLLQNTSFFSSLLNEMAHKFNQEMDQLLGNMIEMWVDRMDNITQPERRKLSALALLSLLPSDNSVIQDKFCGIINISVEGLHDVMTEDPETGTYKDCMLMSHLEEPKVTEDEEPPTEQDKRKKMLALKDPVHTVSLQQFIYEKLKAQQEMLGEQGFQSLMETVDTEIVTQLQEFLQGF
# UniProt P29218: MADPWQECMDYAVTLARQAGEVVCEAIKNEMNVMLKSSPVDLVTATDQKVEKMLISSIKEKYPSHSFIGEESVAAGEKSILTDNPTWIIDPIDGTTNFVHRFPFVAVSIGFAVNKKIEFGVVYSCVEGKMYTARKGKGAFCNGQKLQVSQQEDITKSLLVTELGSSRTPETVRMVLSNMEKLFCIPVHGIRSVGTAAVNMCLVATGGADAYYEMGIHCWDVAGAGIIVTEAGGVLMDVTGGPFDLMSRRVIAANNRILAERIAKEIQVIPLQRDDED
# UniProt Q9NVR2, whole entry: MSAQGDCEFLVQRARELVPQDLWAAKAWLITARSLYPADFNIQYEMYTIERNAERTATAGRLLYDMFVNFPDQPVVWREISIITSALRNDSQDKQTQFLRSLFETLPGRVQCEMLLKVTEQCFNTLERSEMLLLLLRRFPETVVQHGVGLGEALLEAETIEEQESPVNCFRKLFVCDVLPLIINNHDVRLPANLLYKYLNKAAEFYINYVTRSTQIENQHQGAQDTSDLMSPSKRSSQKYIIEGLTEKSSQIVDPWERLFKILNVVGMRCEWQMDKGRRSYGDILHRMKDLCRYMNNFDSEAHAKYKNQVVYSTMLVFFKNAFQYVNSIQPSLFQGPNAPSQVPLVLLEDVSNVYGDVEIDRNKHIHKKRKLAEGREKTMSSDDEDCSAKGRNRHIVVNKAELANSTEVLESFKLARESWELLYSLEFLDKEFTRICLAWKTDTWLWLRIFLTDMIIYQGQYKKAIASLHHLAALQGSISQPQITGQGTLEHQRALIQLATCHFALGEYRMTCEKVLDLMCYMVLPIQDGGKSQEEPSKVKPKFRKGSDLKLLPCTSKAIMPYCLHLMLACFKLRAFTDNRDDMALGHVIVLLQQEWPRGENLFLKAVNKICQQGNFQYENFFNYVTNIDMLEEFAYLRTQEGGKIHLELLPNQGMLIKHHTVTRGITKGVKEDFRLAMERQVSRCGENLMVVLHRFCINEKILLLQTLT
# UniProt P41134: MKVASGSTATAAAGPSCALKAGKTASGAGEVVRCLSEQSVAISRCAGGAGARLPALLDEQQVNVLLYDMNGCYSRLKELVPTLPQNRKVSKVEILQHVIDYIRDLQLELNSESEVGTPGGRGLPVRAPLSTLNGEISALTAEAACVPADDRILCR
# UniProt Q15058: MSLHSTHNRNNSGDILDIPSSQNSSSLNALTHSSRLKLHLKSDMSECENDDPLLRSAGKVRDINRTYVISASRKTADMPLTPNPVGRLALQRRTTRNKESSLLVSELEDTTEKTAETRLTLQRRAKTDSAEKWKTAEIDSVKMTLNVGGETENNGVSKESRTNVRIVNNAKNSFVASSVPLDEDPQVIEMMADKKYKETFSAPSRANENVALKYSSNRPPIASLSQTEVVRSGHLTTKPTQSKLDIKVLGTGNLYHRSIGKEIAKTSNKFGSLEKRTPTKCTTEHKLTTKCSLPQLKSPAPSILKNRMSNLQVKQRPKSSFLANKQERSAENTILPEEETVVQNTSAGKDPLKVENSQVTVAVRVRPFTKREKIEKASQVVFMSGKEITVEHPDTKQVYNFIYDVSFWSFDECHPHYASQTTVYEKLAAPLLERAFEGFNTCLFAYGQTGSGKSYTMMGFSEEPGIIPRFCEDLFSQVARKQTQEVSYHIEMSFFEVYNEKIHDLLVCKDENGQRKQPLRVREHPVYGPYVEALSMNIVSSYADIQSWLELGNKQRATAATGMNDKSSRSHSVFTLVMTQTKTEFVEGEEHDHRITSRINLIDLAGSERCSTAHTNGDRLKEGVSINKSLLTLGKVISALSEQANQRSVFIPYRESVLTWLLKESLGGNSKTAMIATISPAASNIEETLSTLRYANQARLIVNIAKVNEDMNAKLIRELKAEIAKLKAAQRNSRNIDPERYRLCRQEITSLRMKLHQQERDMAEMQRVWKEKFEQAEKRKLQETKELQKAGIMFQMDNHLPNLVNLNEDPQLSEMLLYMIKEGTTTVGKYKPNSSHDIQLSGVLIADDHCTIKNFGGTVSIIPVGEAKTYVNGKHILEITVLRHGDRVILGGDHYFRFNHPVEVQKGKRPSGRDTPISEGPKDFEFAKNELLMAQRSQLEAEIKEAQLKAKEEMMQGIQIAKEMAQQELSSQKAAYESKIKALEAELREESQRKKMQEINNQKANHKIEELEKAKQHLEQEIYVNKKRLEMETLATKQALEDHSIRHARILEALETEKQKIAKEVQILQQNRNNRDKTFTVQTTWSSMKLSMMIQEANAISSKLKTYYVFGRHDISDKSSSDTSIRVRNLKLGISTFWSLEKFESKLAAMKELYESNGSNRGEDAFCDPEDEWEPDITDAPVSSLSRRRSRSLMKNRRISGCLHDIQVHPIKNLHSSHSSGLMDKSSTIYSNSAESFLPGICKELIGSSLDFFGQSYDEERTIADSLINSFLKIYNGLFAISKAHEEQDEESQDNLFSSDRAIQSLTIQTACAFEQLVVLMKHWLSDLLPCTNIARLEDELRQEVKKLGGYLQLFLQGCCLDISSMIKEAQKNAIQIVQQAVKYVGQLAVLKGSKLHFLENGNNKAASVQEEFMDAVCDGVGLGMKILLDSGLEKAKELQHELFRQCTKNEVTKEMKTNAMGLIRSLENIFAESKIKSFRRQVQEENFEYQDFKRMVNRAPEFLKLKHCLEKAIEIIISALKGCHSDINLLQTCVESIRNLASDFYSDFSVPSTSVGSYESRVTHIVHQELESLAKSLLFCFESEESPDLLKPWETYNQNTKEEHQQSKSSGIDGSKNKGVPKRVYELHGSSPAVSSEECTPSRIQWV
# UniProt P51659: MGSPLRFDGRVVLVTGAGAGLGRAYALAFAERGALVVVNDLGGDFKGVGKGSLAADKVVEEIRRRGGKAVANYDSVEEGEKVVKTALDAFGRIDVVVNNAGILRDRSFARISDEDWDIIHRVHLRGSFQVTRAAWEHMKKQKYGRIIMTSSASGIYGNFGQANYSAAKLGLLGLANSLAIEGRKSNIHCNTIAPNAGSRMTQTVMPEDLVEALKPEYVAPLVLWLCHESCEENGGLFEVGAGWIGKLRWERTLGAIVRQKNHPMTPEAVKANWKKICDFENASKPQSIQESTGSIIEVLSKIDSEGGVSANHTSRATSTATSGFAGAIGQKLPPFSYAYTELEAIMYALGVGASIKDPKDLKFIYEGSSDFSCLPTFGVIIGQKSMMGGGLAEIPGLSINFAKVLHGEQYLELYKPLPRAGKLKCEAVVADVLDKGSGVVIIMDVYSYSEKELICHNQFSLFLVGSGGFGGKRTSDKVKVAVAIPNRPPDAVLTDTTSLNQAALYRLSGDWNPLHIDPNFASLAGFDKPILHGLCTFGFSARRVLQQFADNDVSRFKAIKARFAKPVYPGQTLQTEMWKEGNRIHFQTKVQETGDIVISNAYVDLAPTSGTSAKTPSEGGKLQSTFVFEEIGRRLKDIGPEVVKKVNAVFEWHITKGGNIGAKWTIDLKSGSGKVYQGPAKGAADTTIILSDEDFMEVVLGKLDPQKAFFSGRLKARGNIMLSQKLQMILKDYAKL
# UniProt Q07666, whole entry: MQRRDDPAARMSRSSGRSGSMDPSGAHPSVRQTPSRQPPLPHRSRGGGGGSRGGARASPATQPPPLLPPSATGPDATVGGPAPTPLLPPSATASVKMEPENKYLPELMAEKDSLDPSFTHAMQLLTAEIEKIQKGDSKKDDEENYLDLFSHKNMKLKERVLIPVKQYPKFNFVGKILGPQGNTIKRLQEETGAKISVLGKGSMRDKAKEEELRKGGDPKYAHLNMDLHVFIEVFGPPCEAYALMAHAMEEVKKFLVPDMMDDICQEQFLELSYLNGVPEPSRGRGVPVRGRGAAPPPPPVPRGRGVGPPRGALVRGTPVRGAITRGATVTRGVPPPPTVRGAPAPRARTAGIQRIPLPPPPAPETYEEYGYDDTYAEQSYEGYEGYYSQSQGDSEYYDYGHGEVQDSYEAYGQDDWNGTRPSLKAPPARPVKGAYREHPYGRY
# UniProt P01130: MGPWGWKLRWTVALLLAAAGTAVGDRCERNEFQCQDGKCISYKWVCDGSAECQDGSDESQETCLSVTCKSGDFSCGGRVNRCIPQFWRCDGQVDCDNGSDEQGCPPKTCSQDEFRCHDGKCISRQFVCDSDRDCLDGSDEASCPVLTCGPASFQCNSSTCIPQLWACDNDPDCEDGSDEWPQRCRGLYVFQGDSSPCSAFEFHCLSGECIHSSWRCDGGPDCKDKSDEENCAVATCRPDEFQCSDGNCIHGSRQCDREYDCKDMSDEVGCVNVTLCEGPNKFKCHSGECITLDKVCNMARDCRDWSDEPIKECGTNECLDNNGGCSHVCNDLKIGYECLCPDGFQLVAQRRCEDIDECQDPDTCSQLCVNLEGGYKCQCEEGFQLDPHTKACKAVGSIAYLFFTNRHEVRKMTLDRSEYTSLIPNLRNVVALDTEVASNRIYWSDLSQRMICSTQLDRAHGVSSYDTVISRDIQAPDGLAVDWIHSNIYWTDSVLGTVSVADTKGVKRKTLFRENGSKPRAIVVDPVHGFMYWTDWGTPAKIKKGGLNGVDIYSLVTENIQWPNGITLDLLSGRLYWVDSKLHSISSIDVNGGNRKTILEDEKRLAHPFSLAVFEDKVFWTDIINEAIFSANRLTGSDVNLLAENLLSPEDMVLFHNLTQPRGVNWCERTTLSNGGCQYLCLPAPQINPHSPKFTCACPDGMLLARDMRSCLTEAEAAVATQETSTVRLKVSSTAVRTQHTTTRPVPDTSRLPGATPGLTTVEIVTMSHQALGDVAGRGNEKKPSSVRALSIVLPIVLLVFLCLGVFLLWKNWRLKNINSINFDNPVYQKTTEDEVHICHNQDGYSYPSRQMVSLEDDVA
# UniProt O60921: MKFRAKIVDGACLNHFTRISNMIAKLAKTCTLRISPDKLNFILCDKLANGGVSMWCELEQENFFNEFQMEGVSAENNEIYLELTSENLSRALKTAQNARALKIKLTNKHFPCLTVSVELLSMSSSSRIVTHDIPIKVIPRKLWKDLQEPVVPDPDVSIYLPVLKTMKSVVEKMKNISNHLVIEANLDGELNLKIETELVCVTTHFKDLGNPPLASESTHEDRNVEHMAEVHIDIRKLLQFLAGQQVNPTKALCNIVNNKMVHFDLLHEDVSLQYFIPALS
# UniProt Q92506: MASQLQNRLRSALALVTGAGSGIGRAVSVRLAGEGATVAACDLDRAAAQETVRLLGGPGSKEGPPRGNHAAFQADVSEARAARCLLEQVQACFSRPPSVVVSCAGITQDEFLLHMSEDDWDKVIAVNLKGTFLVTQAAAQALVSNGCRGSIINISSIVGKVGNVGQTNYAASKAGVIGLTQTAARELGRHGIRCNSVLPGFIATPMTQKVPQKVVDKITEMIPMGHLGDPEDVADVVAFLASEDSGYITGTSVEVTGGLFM
# UniProt Q9NXV2: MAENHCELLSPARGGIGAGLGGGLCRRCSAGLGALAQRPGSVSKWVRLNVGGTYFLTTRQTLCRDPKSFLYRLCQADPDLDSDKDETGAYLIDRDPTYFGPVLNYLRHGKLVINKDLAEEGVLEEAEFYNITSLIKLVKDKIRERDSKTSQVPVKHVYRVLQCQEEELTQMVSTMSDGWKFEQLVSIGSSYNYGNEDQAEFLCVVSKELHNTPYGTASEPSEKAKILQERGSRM
# The list shows a part of the results.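 How the source made its calls: active = dose-dependent thermal stabilisation significant by F-test of dose-response against flat model at 10% FDR; inactive = not significant.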
# Compound: Nc1nc2c(ncn2[C@@H]2O[C@H](COP(=O)(O)OP(=O)(O)OP(=O)(O)O)[C@@H](O)[C@H]2O)c(=O)[nH]1
# Assay: dose-dependent thermal stabilisation call (2D-TPP, DLPTP, 10% FDR) (binary (1 = stabilised)); higher = stabilised by the compound
# Conditions: system: Jurkat gel-filtered lysate; concentration range 1-500 µM
# Experimental: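 2D thermal proteome profiling in gel-filtered Jurkat E6.1 lysate (2 mg/ml) treated with NaGTP (0, 1, 10, 100, 500 uM) for 10 min at room temperature, then heated 3 min at one of 12 temperatures (42-63.9 C). Soluble protein was quantified by TMT10 MS. The value is the DLPTP call of the paper: dose-dependent thermal stabilisation over all temperatures at 10% FDR (F-test of a dose-response against a flat model); one experiment, one call per tested protein.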
row,Target,dose-dependent thermal stabilisation call
1,IPO11 (UniProt Q9UI26),inactive: 0
2,LPIN1 (UniProt Q14693),inactive: 0
3,IMPA1 (UniProt P29218),inactive: 0
4,KLHDC4 (UniProt Q8TBB5),inactive: 0
5,INTS10 (UniProt Q9NVR2),active: 1
6,HYOU1 (UniProt Q9Y4L1),inactive: 0
7,ID1 (UniProt P41134),inactive: 0
8,KIF14 (UniProt Q15058),inactive: 0
9,KIAA1551 (UniProt Q9HCM1),inactive: 0
10,KNSTRN (UniProt Q9Y448),inactive: 0
11,LENG1 (UniProt Q96BZ8),inactive: 0
12,LIMD1 (UniProt Q9UGP4),active: 1
13,LAP3 (UniProt P28838),inactive: 0
14,KBTBD4 (UniProt Q9NVX7),inactive: 0
15,HSD17B4 (UniProt P51659),inactive: 0
16,IQGAP1 (UniProt P46940),inactive: 0
17,KDM3B (UniProt Q7LBC6),inactive: 0
18,KMT2A (UniProt Q03164),inactive: 0
19,HSDL2 (UniProt Q6YN16),inactive: 0
20,KLF13 (UniProt Q9Y2Y9),inactive: 0

# Reprinted from above (two entries):
row,Target,dose-dependent thermal stabilisation call
15,HSD17B4 (UniProt P51659),inactive: 0
16,IQGAP1 (UniProt P46940),inactive: 0

# (cont.)

row,Target,dose-dependent thermal stabilisation call
1,ISOC1 (UniProt Q96CN7),inactive: 0
2,KHDRBS1 (UniProt Q07666),active: 1
3,HOMER1 (UniProt Q86YM7),inactive: 0
4,LDLR (UniProt P01130),inactive: 0
5,HOMER2 (UniProt Q9NSB8),inactive: 0
6,IK (UniProt Q13123),inactive: 0
7,KBTBD11 (UniProt O94819),inactive: 0
8,KIAA0907 (UniProt Q7Z7F0),inactive: 0
9,LIMS1 (UniProt P48059),inactive: 0
10,KEAP1 (UniProt Q14145),inactive: 0
11,KDM2A (UniProt Q9Y2K7),inactive: 0
12,HUS1 (UniProt O60921),inactive: 0
13,IST1 (UniProt P53990),inactive: 0
14,HSD17B8 (UniProt Q92506),inactive: 0
15,KCTD5 (UniProt Q9NXV2),inactive: 0
16,IPO8 (UniProt O15397),inactive: 0
17,ILF2 (UniProt Q12905),inactive: 0
18,IARS (UniProt P41252),inactive: 0
19,HOOK3 (UniProt Q86VS8),inactive: 0
20,IMPDH2 (UniProt P12268),inactive: 0
